Test results published in PMC3254663.
Results are given in words; binding and its absence hold for the method and conditions named. Binding seen in cells or lysates may run through a third protein. Binding can be weak; no strength is given. Sequences can lack the tags named with a protein.

What follows are substances tested against T1, Myc-tagged Smoothened (Myc-Smo) (Drosophila) (UniProt P91682) (assay: co-IP; S2 cells co-transfected with Myc-Smo constructs and HA-USP8 constructs; immunoprecipitation with anti-Myc, Western blot with anti-HA).
T1 sequence: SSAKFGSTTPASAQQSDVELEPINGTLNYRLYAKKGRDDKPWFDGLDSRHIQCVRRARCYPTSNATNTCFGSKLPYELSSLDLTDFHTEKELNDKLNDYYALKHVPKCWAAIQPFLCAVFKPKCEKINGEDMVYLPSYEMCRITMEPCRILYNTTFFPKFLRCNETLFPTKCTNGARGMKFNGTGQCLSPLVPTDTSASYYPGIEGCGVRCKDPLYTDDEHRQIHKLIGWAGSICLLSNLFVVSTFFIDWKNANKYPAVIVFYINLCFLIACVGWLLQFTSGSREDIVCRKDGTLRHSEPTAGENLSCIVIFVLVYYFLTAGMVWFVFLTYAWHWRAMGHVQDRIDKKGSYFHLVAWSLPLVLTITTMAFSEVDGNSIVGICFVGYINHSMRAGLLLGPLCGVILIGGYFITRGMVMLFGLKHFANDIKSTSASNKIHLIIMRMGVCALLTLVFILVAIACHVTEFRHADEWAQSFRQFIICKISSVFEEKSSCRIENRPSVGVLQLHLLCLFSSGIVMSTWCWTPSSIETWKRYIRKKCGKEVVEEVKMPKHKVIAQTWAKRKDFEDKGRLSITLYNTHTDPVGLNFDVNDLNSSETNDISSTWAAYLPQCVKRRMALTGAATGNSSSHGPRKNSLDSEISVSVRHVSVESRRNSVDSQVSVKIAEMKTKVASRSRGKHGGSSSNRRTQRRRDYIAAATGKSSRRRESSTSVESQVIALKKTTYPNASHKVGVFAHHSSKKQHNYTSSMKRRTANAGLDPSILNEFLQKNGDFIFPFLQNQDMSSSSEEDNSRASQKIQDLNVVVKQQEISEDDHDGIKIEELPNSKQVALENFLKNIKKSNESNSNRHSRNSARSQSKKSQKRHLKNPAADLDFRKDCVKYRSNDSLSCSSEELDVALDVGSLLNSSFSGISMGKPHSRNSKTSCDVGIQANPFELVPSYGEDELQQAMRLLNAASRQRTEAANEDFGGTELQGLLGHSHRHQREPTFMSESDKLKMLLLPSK

Row | Substance | binding
1 | HA-USP8CT1 (aa 1-534) (Drosophila) (domain or fragment) | no binding
2 | HA-USP8NT1 (aa 128-896) (Drosophila) (domain or fragment) | binds
3 | HA-tagged ubiquitin-specific protease 8 (HA-USP8) (Drosophila) (enzyme) | binds

Further lines, results first:

Row | binding | Substance
4 | no binding | HA-USP8CT3 (aa 1-286) (Drosophila) (domain or fragment)
5 | binds | HA-USP8NT2 (aa 287-896) (Drosophila) (domain or fragment)
6 | binds | HA-USP8NT3 (aa 523-896), the catalytic domain of USP8 (Drosophila) (domain or fragment)

These substances were tested against T2, GST-Smo625-753 (Drosophila) (UniProt P91682) (assay: pull-down; extracts from S2 cells expressing Flag-USP8, with or without Hh treatment, incubated with bacterially expressed GST-Smo fusion proteins; bound USP8 detected with anti-Flag; only the target purified).
T2 sequence: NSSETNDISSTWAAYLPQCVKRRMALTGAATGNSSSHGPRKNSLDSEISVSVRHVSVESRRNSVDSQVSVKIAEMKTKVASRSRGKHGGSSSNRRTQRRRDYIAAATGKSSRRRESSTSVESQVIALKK

Row | binding | Substance
7 | binds | Flag-tagged ubiquitin-specific protease 8 (Flag-USP8) (Drosophila) (enzyme)
